Assay results reported in patent publication US8114904B2, “Luminescence quenchers and fluorogenic probes for detection of reactive species” (Versitech Limited & Morningside Ventures Limited, priority 2008, dated 2012).
Some results were stated once for a whole list of compounds, not compound by compound.

Assay: Evaluation of the fluorescence of quenching compounds
Assay type: physicochemical
Conditions: 10 μM in 0.1 M phosphate buffer pH 7.4, excitation 600 nm; for absolute values of fluorescence intensity: Hitachi F2500, 700 V, slit 2.5 nm

fluorescence of the compound	absolute values of fluorescence intensity	Structure (SMILES)
virtually non-fluorescent	below 10	O=c1ccc2nc3ccc(Nc4ccc(O)cc4)cc3oc-2c1 [Compound 2]
virtually non-fluorescent	below 10	O=C(O)c1ccccc1-c1c2ccc3cc(Nc4ccc(O)cc4)ccc3c2oc2c1ccc1cc(=O)ccc12 [Compound 5]
virtually non-fluorescent	below 10	COCOc1ccc(Nc2ccc3nc4ccc(=O)cc-4oc3c2)cc1 [Compound 1]
